Laboratory results reported in PubChem BioAssay AID743255 (National Center for Advancing Translational Sciences (NCATS), 2014).
The whole screen tested about 390,000 compounds, of which about 910 (0.23%) were called active. The shares of active, inactive and inconclusive entries below differ from those in the screen. Calls come from the whole dose curve; as a rule, active = well fitted inhibition curve with a large enough effect; inconclusive = small, poorly fitted or top-dose-only effect; inactive = no such curve, though single readings can be large or run the other way. Where the call is inconclusive, the potency comes from a doubtful curve fit.

Sequences of proteins named here, by UniProt entry; tags and fusion partners are left off. A change or cut given only in a name is not applied to a line headed by its entry.
UniProt O94782: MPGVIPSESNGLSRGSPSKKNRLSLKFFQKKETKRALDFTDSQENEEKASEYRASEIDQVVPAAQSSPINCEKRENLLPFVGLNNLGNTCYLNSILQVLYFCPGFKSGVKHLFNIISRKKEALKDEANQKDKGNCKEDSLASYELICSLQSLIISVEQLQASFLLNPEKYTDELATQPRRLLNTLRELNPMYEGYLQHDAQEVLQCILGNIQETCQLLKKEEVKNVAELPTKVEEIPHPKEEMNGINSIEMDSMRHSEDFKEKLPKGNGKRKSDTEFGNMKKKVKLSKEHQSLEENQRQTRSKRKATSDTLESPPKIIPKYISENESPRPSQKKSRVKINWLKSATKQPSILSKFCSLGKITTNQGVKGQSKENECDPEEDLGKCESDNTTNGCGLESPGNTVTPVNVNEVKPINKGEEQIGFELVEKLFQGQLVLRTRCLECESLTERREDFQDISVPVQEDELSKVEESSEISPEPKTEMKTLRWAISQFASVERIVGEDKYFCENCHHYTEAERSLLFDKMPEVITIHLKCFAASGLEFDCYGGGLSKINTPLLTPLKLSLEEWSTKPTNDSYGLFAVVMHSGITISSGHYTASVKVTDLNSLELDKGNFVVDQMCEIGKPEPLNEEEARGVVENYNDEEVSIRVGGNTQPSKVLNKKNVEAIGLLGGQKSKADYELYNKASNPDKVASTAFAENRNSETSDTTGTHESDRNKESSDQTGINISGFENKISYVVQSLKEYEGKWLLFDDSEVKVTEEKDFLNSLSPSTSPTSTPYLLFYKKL

Target: Ubiquitin carboxyl-terminal hydrolase 1 (Homo sapiens) (UniProt O94782)
Experiment: Inhibitors of USP1/UAF1: Primary Screen; note: nearly all actives have a fitted effect of over 60% in size
Conditions: recombinant USP1/UAF1, Ub-Rhodamine cleavage fluorescence; activity change, negative = inhibition: at 57.1 µM (top of the series)
Method in brief: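 USP1/UAF1 complex at 1 nM was preincubated with compound for 15 min at room temperature, then Ub-Rho substrate (150nM final) was added. Fluorescence (480/540 nm) was read kinetically, 6 reads every 60 seconds.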
% is set by controls: 0 for no effect and ±100 for the full control effect; potency is the fitted concentration of half-maximal effect.

**Q.** Which “activity change, negative = inhibition” value does the source give for `COc1ccc(N2CC(NC(=O)COc3ccccc3F)CC2=O)cc1OC` (centres undefined) here?
**A.** inactive: -6.69%

**Q.** `CC(C)(C)OC(=O)Nc1ccc([C@@H](NC(=O)OC(C)(C)C)C(=O)OC(C)(C)C)cc1` was tested. Which Potency did it give?
**A.** inconclusive: 3.55 µM [inhibitor, full curve, poor fit]

**Q.** How did the Potency turn out when `COc1ccc(C(=O)N[C@H](C(=O)OCn2nnc3ccccc3c2=O)C(C)C)cc1` was run?
**A.** inconclusive: 0.282 µM [inhibitor, full curve, poor fit]

**Q.** With `COc1ccc(NC(=O)CCS(=O)(=O)c2nc(-c3ccc4c(c3)OCO4)cc(C(F)(F)F)n2)cc1OC` as the molecule, how does the Potency read?
**A.** inconclusive: 56.2 µM [inhibitor, partial curve, poor fit]

**Q.** How did the “activity change, negative = inhibition” value turn out when `CCN(CC)CCn1c(=N)n(CC(O)COc2cccc(C)c2)c2ccccc21` (centres undefined) was run?
**A.** inactive: -19.6%

**Q.** Which “activity change, negative = inhibition” value does the source give for `O=c1c2ccccc2sn1-c1cccc(Cl)c1` here?
**A.** inactive: -16.4%

**Q.** Which Potency does the source give for `NC1=NC(c2ccc(Br)cc2)n2c(nc3ccccc32)N1` (centres undefined) here?
**A.** inactive

**Q.** For `C#CCOCCOCCOCCNc1nc(N2CCN(C(=O)CCCCCCCCCCNC(=O)[C@H](CCCCN)n3cc(C)nn3)CC2)nc(N2CCN(C(=O)CCCCCCCCCCNC(=O)[C@H](CCCN=C(N)N)n3cc(C[C@@H](C)CC)nn3)CC2)n1`, which Potency is on record?
**A.** inconclusive: 39.8 µM [inhibitor, partial curve, poor fit]

**Q.** Which Potency does the source give for `COCCNC(=O)c1c(NC(=O)c2cc(=O)c3cc(C)cc(C)c3o2)sc2c1CCCC2` here?
**A.** inconclusive: 0.0891 µM [inhibitor, full curve, poor fit]

**Q.** With `CSCC[C@H](NC(=O)C1CCCC1)c1nc2ccccc2[nH]1` as the molecule, how does the Potency read?
**A.** inconclusive: 50.1 µM [inhibitor, partial curve, poor fit]

**Q.** `CC(C)Oc1ccc(CNC(=S)Nc2ccccc2)cc1Cl` was tested. Which “activity change, negative = inhibition” value did it give?
**A.** inactive: -24.9%

**Q.** With `COc1cc(OC)c2ccc(=O)oc2c1C(CC(=O)N1CCOCC1)c1ccc2c(c1)OCO2` (centres undefined) as the molecule, how does the Potency read?
**A.** inconclusive: 7.94 µM [inhibitor, full curve, poor fit]

**Q.** For `COCCNC(=S)Nc1ccc2nc(N3CCOCC3)cc(C)c2c1`, which Potency is on record?
**A.** inconclusive: 44.7 µM [inhibitor, partial curve, poor fit]

**Q.** Which Potency does the source give for `Cc1cc(C(=O)N2CCN(c3ccccc3F)CC2)c2c(C)nn(-c3ccccc3)c2n1` here?
**A.** inconclusive: 20 µM [inhibitor, partial curve, poor fit]

**Q.** Which Potency does the source give for `CC(C)N(C(=O)[C@H]1C[C@H](CC(=O)NC(C)(C)C)C(=O)N2CCc3c([nH]c4cc(-c5ccco5)ccc34)[C@]12C)C(C)C` here?
**A.** inconclusive: 70.8 µM [inhibitor, partial curve, poor fit]

**Q.** With `N#C/C(=C\c1ccc(N2CCOCC2)o1)C(=O)NCC1CCCO1` (centres undefined) as the molecule, how does the Potency read?
**A.** inconclusive: 44.7 µM [inhibitor, partial curve]

**Q.** For `C=C1C[C@H](O[C@@H]2O[C@H](CO)[C@@H](O)[C@H](O)[C@H]2O)[C@@H]2[C@H](OC(=O)[C@H]2C)[C@H]2[C@H](C)[C@H](O)C[C@@H]12`, which Potency is on record?
**A.** inconclusive: 56.2 µM [inhibitor, partial curve, poor fit]

**Q.** With `O=C(CSc1nc2ccccc2nc1Cc1ccccc1)N1CCc2ccccc21` as the molecule, how does the Potency read?
**A.** inconclusive: 0.398 µM [inhibitor, full curve, poor fit]

**Q.** `CC1(C)NC(=O)N(CC(O)COc2ccccc2C(=O)N2CCCCC2)C1=O` (centres undefined) was tested. Which “activity change, negative = inhibition” value did it give?
**A.** inactive: -9.08%

**Q.** For `COc1ccc(N(C)C(=O)Cn2cnc3sc(C)c(S(=O)(=O)N4CCN(c5ncccn5)CC4)c3c2=O)cc1`, which Potency is on record?
**A.** inconclusive: 3.16 µM [inhibitor, partial curve]

**Q.** With `Cc1ccc(Cl)cc1N1CCN(C(=O)C2CCN(S(=O)(=O)c3cn(C)cn3)CC2)CC1` as the molecule, how does the Potency read?
**A.** inconclusive: 4.47 µM [inhibitor, partial curve]

**Q.** How did the Potency turn out when `CCc1ccc(S(=O)(=O)Nc2ccc3c(c2)sc(=O)n3C)cc1` was run?
**A.** inconclusive: 7.94 µM [inhibitor, partial curve, poor fit]

**Q.** How did the “activity change, negative = inhibition” value turn out when `COc1cc(C)ccc1OCc1cc(C(=O)N2CCCCCC2)no1` was run?
**A.** inactive: -15.5%

**Q.** `COc1ccc(Cc2nnc(NC(=O)Nc3cccc(OC)c3)s2)cc1` was tested. Which Potency did it give?
**A.** inconclusive: 0.631 µM [inhibitor, full curve, poor fit]

**Q.** How did the Potency turn out when `Cc1oc2ccc(NS(=O)(=O)c3ccccc3)cc2c1C(=O)Nc1ccccc1` was run?
**A.** inconclusive: 1.41 µM [inhibitor, full curve, poor fit]

**Q.** For `CC1=C(c2ccc(C(C)C)cc2)S(=O)(=O)N=C1N1CCC(C(=O)Nc2ccc(C)cc2)CC1`, which Potency is on record?
**A.** inconclusive: 0.224 µM [inhibitor, full curve, poor fit]

**Q.** Which Potency does the source give for `CC12CC(c3ccccc3O1)C(C(=O)N1CCOCC1)C(=O)N2` (centres undefined) here?
**A.** inconclusive: 0.447 µM [inhibitor, full curve, poor fit]

**Q.** Which “activity change, negative = inhibition” value does the source give for `CCOC(=O)C1CCCCN1Cc1cccc(Oc2ccccc2)c1` (centres undefined) here?
**A.** inactive: 2.69%

**Q.** `Cc1ccc2c(C)c(C(=O)N3CCN(c4cnccn4)CC3)oc2c1C` was tested. Which “activity change, negative = inhibition” value did it give?
**A.** inactive: -20.6%

**Q.** How did the Potency turn out when `O=C(COC(=O)c1ccc([N+](=O)[O-])o1)NCCCc1ccccc1` was run?
**A.** inconclusive: 31.6 µM [inhibitor, partial curve]

**Q.** `CCCCNC(=O)CSc1nc2cc3c(cc2c(=O)n1Cc1ccc(C(=O)NCCc2ccc(OC)c(OC)c2)cc1)OCO3` was tested. Which Potency did it give?
**A.** inconclusive: 0.447 µM [inhibitor, full curve, poor fit]

**Q.** Which Potency does the source give for `C#CCOCCOCCOCCNc1nc(N2CCN(C(=O)CCCCCCCCCCNC(=O)[C@H]([C@@H](C)CC)n3cc(CCCCN=C(N)N)nn3)CC2)nc(N2CCN(C(=O)CCCCCCCCCCNC(=O)[C@H](CCCCN)n3cc(C)nn3)CC2)n1` here?
**A.** inconclusive: 28.2 µM [inhibitor, single point]

**Q.** With `COCc1cc(C)nc(Nc2cc(C)ccc2C)c1C#N` as the molecule, how does the Potency read?
**A.** inconclusive: 14.1 µM [inhibitor, partial curve]

**Q.** `O=C(Nc1onc2c1CCCC2)c1ccccc1` was tested. Which Potency did it give?
**A.** inconclusive: 3.98 µM [inhibitor, partial curve]

**Q.** With `CCc1ccc(OC(=O)CN2C(=O)c3ccccc3C2=O)cc1` as the molecule, how does the Potency read?
**A.** inconclusive: 1.12 µM [inhibitor, partial curve, poor fit]

**Q.** For `COc1ccc(OCc2cc(C(=O)NC(C)c3nc(C)cs3)no2)c(Cl)c1` (centres undefined), which activity change, negative = inhibition is on record?
**A.** inconclusive: -14.6% [inhibitor]

**Q.** How did the Potency turn out when `Cc1cc(C)nc(SCC(=O)NC2=NN=C(c3ccc(Br)cc3)CS2)n1` was run?
**A.** inconclusive: 25.1 µM [inhibitor, partial curve]

**Q.** For `CCCCSc1nc(O)cc(=O)n1CC`, which “activity change, negative = inhibition” value is on record?
**A.** inactive: -13.6%

**Q.** How did the Potency turn out when `COc1ccc(-n2nc(C(=O)NCCc3ccc(OC)c(OC)c3)c3c4ccccc4n(C)c3c2=O)cc1` was run?
**A.** inconclusive: 8.91 µM [inhibitor, partial curve, poor fit]

**Q.** Which Potency does the source give for `Cc1cccc(C(=O)N2[C@@H](C(C)C)COc3cc(Br)ccc3S2(=O)=O)c1` here?
**A.** inconclusive: 3.98 µM [inhibitor, partial curve]

**Q.** With `CCOc1ccccc1N1CCN(C2=C(NS(=O)(=O)c3cccs3)C(=O)c3ccccc3C2=O)CC1` as the molecule, how does the Potency read?
**A.** inconclusive: 14.1 µM [inhibitor, partial curve]

**Q.** How did the Potency turn out when `COc1ccc(NC(=O)CSc2nc3ccccc3nc2N2CCCCC2)cc1` was run?
**A.** inconclusive: 39.8 µM [inhibitor, partial curve, poor fit]

**Q.** Which “activity change, negative = inhibition” value does the source give for `CC1(C)C(=O)C=CC(=O)C(C)(C)C(=O)C=CC(=O)C(C)(C)C2=CC=C(O2)C(C)(C)C(=O)C=CC1=O` here?
**A.** inactive: -22.7%

**Q.** `CNC(=S)N=Nc1c(O)[nH]c2ccccc12` was tested. Which “activity change, negative = inhibition” value did it give?
**A.** inactive: -3.91%

**Q.** With `CCOC(=O)c1c(N)n(-c2ccc(CC)cc2)c2nc3ccccc3nc12` as the molecule, how does the Potency read?
**A.** inconclusive: 28.2 µM [inhibitor, partial curve]

**Q.** For `O=C(O)CSc1nc(-c2ccc(Cl)cc2)nc2c1oc1ccccc12`, which Potency is on record?
**A.** inconclusive: 50.1 µM [inhibitor, partial curve]

**Q.** How did the Potency turn out when `COc1ccc(S(=O)(=O)n2nc(C)c(S(=O)(=O)N3CCCCCC3)c2C)cc1C` was run?
**A.** inconclusive: 50.1 µM [inhibitor, partial curve, poor fit]

**Q.** Which Potency does the source give for `CC(=O)Nc1ccc(C)cc1-c1nc2ccccc2n(CC(=O)c2ccc(C)c(C)c2)c1=O` here?
**A.** inconclusive: 44.7 µM [inhibitor, partial curve]

**Q.** For `Cn1c(=O)c2ncn(CC(=O)N/N=C/c3ccco3)c2n(C)c1=O`, which Potency is on record?
**A.** inconclusive: 2.24 µM [inhibitor, partial curve]

**Q.** `Cc1cccc(NC(=O)c2ccc3c(c2)OCCO3)c1C` was tested. Which Potency did it give?
**A.** inconclusive: 31.6 µM [inhibitor, single point]

**Q.** With `Cc1ccc2c(C)c(C(=O)N(Cc3ccc(N(C)C)cc3)Cc3ccco3)oc2c1C` as the molecule, how does the “activity change, negative = inhibition” value read?
**A.** inactive: 1.26%

**Q.** For `CC1CCN(CCOc2ccc(C(=O)c3ccccc3)cc2)CC1`, which Potency is on record?
**A.** inconclusive: 15.8 µM [inhibitor, partial curve, poor fit]

**Q.** With `CCC[C@@H](CN1CCC[C@H]1CN1C(N)=NC[C@@H]1Cc1ccccc1)N1C[C@@H](Cc2ccccc2)N(CCCC2CCCC2)C1=N` as the molecule, how does the Potency read?
**A.** inconclusive: 5.01 µM [inhibitor, full curve]

**Q.** `COc1ccc(Cl)cc1NC(=O)CCN1C(=O)C2C3CCC(C3)C2C1=O` (centres undefined) was tested. Which Potency did it give?
**A.** inconclusive: 63.1 µM [inhibitor, partial curve, poor fit]

**Q.** With `COc1ccc(CCN2C(=O)C(O)=C(C(C)=O)C2c2ccccc2OC)cc1OC` (centres undefined) as the molecule, how does the Potency read?
**A.** inconclusive: 0.251 µM [inhibitor, full curve, poor fit]

**Q.** Which “activity change, negative = inhibition” value does the source give for `N=c1n(Cc2ccccc2)c2ccccc2n1Cc1ccccc1` here?
**A.** inactive: 2.19%

**Q.** With `COc1ccc2sc(-c3ccc(N(C)C)cc3)c(C#Cc3cncn3C)c2c1` as the molecule, how does the Potency read?
**A.** inconclusive: 44.7 µM [inhibitor, partial curve]

**Q.** How did the “activity change, negative = inhibition” value turn out when `CCC(C)C(NC(=O)OC(C)(C)C)C(=O)NC(C)C(N)=O` (centres undefined) was run?
**A.** inactive: -20.6%

**Q.** How did the Potency turn out when `Cc1ccc(CNC(=O)c2ccc(N3CCC4(CC3)CC(c3ccccc3)=NO4)c(NC(=O)c3c(Cl)cccc3Cl)c2)cc1` was run?
**A.** inconclusive: 39.8 µM [inhibitor, partial curve, poor fit]
